Measured values published in the supplement of paper PMC12889115.
The list shows a part of the results. These are raw signals, not scaled to a control.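 In the initial screen, polymyxin B was used at a concentration that permeabilizes Salmonella's outer membrane but not its inner membrane. Maximum growth was set by DMSO wells with or without polymyxin B. Since plates varied, data were ranked per plate, and compounds giving the lowest OD600 advanced as hits.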

Test system: Salmonella enterica serovar Typhimurium SL1344
Experiment: bacterial growth OD600 after 18 h with compound and polymyxin B; higher = more bacterial growth (less inhibition)
Details: 50 µM, Mueller-Hinton broth

| Compound | bacterial growth OD600 (polymyxin B 0.75 µg/mL) | bacterial growth OD600 (polymyxin B 1 µg/mL) |
| --- | --- | --- |
| O=C(C1CCOCC1)N1CCC(C2CCN(c3ncccn3)CC2)C1 (stereo not given) | 0.757 | – |
| COc1ccccc1-c1ccnc(-n2ncc(C(=O)NCCCc3ccncc3)c2C)n1 | 0.886 | – |
| CN1CCN(c2ccc(C(=O)N3CCCC(c4ccccc4)CC3)cn2)CC1 (stereo not given) | – | 0.9 |
| COc1ccccc1CCNC(=O)C1CCCN1c1nc(C)c2ccc(S(C)(=O)=O)cc2n1 (stereo not given) | 0.827 | – |
| CCCn1cc(CN2CCN(Cc3ccc(OC)c(C)c3)C(CCO)C2)c(C)n1 (stereo not given) | – | 1.06 |
| CCN(C)C(=O)c1coc(COc2ccccc2)n1 | – | 0.952 |
| O=C(c1cccnc1)N1CCC(Oc2ccccc2C(=O)N2CCCC(O)C2)CC1 (stereo not given) | – | 1.26 |
| Cc1ccc(CC2(CCC(=O)N3CCCC3c3nc4ccccc4s3)CCC(=O)N2)cc1 (stereo not given) | 0.893 | – |
| O=C1CC(NCc2c[nH]cn2)CN1Cc1cccc2ccccc12 (stereo not given) | – | 0.871 |
| CC(C)c1cc(C(=O)N2CCC(n3nccc3NC(=O)C(C)(C)C)CC2)on1 | – | 0.911 |
| O=C(c1cc(COc2ccccc2)[nH]n1)N1CCN(C2CCCCC2)CC1 | – | 1.17 |
| O=C(Cc1ccccc1)Nc1ccnn1C1CCN(Cc2cccc3nonc23)CC1 | – | 0.831 |
| O=C(Nc1ccc(-c2nc3ccccc3[nH]2)cc1)C1CCCN(C2CCOCC2)C1 (stereo not given) | – | 0.999 |
| COc1ccc(C(CC(=O)N(C)Cc2csc(C)n2)c2ccccc2)cc1 (stereo not given) | – | 0.628 |
| CSCC(=O)N1CCCC(N2CCN(c3cccc(C(F)(F)F)c3)CC2)C1 (stereo not given) | – | 1.12 |
| O=C(CN1CCOC1=O)N1CCCC(CCc2cccc(C(F)(F)F)c2)C1 (stereo not given) | 0.002 | – |
| C[C@H](NC(=O)c1cc(Cl)ccc1OC1CCN(C2CCCC2)CC1)C(N)=O | – | 1.25 |
| O=C(NCC1(c2ccccc2)CCCC1)C1CC12CCN(C(=O)/C=C/c1ccccc1)CC2 (stereo not given) | 0.004 | – |
| CC(=O)NCCC(=O)N1CCCC(CCc2cccc(F)c2)C1 (stereo not given) | 0.948 | – |
| CC(C)(CNC(=O)c1cc(COc2ccc3c(c2)CCCC3)on1)N1CCOCC1 | 0.012 | – |

An excerpt from the list above:

| Compound | bacterial growth OD600 (polymyxin B 0.75 µg/mL) | bacterial growth OD600 (polymyxin B 1 µg/mL) |
| --- | --- | --- |
| COc1ccccc1-c1ccnc(-n2ncc(C(=O)NCCCc3ccncc3)c2C)n1 | 0.886 | – |
| CN1CCN(c2ccc(C(=O)N3CCCC(c4ccccc4)CC3)cn2)CC1 (stereo not given) | – | 0.9 |
| COc1ccccc1CCNC(=O)C1CCCN1c1nc(C)c2ccc(S(C)(=O)=O)cc2n1 (stereo not given) | 0.827 | – |
| CCCn1cc(CN2CCN(Cc3ccc(OC)c(C)c3)C(CCO)C2)c(C)n1 (stereo not given) | – | 1.06 |
| CCN(C)C(=O)c1coc(COc2ccccc2)n1 | – | 0.952 |
| O=C(c1cccnc1)N1CCC(Oc2ccccc2C(=O)N2CCCC(O)C2)CC1 (stereo not given) | – | 1.26 |
